Source: PubChem BioAssay AID1487 (National Center for Advancing Translational Sciences (NCATS), 2009)
Screen size: about 200,000 compounds; about 25 (0.01%) were called active. The inconclusive results got no clear call from the source; some entries with a clear call stand among them for comparison. The call rests on the fitted dose curve; in most records, active means well fitted inhibition curve with a large enough effect in the signal ratio, with a control signal flat (not every such curve was filed as active); inconclusive means small, poorly fitted or top-dose-only effect, or effect the other way, or a change in a side signal; inactive means flat fitted curve, though single readings scatter; the % refers to the signal ratio. A potency beside an inconclusive call is a rough fit, not a confirmed value.

Assay: qHTS Assay for Modulators of Lamin A Splicing
Details: HeLa LMNA splicing GFP/RFP minigene ratio, 48 h; ratio change, negative = inhibition: at 46.1 µM (top of the series) unless noted
In short: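 Read-out is the ratio of GFP to DsRed2 object intensity, acquired by 488 nm laser-scanning cytometry on HeLa lamin A-EGFP minigene reporter cells. Compound incubation 48 hrs at 37 °C in Opti-MEM with 2% FBS; DMSO 0.5% final.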
On the % scale 0 is the no-effect control and ±100 the full control effect; potency means the concentration at half of the fitted maximal effect.

Which “ratio change, negative = inhibition” value does the source give for `Cc1ccc(C(=O)NCC(c2ccc(Cl)cc2)N2CCCCC2)cc1` (stereo not given) here?
Its value is inactive: -3.84% [at 46 µM].

Which “ratio change, negative = inhibition” value does the source give for `CCCCc1c(CCC)c(=N)c2ccccc2n1C` here?
Its value is inactive: 14.7%.

Which ratio change, negative = inhibition does the source give for `COc1ccc(Sc2cnn(-c3ccccc3)c(=O)c2Cl)cc1` here?
Its ratio change, negative = inhibition is inconclusive: 33.1%.

Which “ratio change, negative = inhibition” value does the source give for `O=C1c2ccccc2C(=O)N1CCC(c1ccc(F)cc1)c1ccco1` (stereo not given) here?
The value was inactive: 14.1%.

With `CCS(=O)(=O)c1ccc(N)cc1` as the compound, how does the ratio change, negative = inhibition read?
Its ratio change, negative = inhibition is inconclusive: 18.7% [at 46 µM].

Which “ratio change, negative = inhibition” value does the source give for `CCc1nc(C)ccc1OC(=O)C12CC3CC(CC(C3)C1)C2` here?
Its value is inactive: -7.2%.

With `COc1cccc(-c2cc(=O)c3cc(NC(=O)c4ccccc4)ccc3[nH]2)c1` as the compound, how does the ratio change, negative = inhibition read?
Its ratio change, negative = inhibition is inconclusive: -32.8%.

For `COC(=O)N1C2=C(c3ccccc3[C@@H]1CC(=O)Nc1ccc3ccc4cccc5ccc1c3c45)[C@@H]1C(=O)N(c3ccccc3)C(=O)[C@@H]1[C@H](C)C2`, which ratio change, negative = inhibition is on record?
Its ratio change, negative = inhibition is inactive: -5.84% [at 9.22 µM].

Which “ratio change, negative = inhibition” value does the source give for `NS(=O)(=O)c1cc([C@@]2(O)NC(=O)c3ccccc32)ccc1Cl` here?
The value was inactive: -13.1%.

Which “ratio change, negative = inhibition” value does the source give for `Cc1cc(C)n2[nH]c(=O)c(N=Nc3cccc(Cl)c3)c2n1` here?
The value was inactive: -6.32%.

With `O=C(COc1ccc(C(=O)c2ccccc2)cc1)NC1CCCCC1` as the compound, how does the Potency read?
Its Potency is inconclusive: 11.2 µM [fluorescent, partial curve].

For `Fc1ccc(NC(=S)N2N=CCC2c2ccccc2)cc1` (stereo not given), which “ratio change, negative = inhibition” value is on record?
The value was inactive: 20.6%.

For `O=C(Nc1ccc(Oc2ccc(NC(=O)Nc3ccccc3Cl)cc2)cc1)Nc1ccccc1Cl`, which Potency is on record?
The Potency was inconclusive: 12.6 µM [cytotoxic, partial curve].

For `CC1CCc2c(sc3ncnc(NCc4cccnc4)c23)C1` (stereo not given), which ratio change, negative = inhibition is on record?
Its ratio change, negative = inhibition is inconclusive: -3.45% [at 46 µM].

With `C[C@@H](CN1CCC(Cc2ccccc2)CC1)[C@@H](O)c1ccc(O)cc1` as the compound, how does the Potency read?
Its Potency is inconclusive: 1.58 µM [activator, full curve, poor fit].

With `CCN(c1cccc(C)c1)S(=O)(=O)c1ccc2[nH]c(=O)c(=O)[nH]c2c1` as the compound, how does the “ratio change, negative = inhibition” value read?
Its value is inactive: -11.9%.

With `Cc1ccc(-n2c(NN)nc3ccccc3c2=O)c(C)c1` as the compound, how does the ratio change, negative = inhibition read?
The ratio change, negative = inhibition was inconclusive: -42.7%.

For `CCN(c1ccccc1)S(=O)(=O)c1cccc(C(=O)NCC(c2cccs2)N(C)C)c1` (stereo not given), which ratio change, negative = inhibition is on record?
Its ratio change, negative = inhibition is inconclusive: 11.2% [at 46 µM].

For `CN(C)C(N)=NCCC[C@H](N)C(=O)O`, which ratio change, negative = inhibition is on record?
The ratio change, negative = inhibition was inconclusive: -10.7%.

With `Cc1cc(C)c(C#N)c(SCSCc2ccccc2)n1` as the compound, how does the ratio change, negative = inhibition read?
Its ratio change, negative = inhibition is inconclusive: 33.1%.

With `O=C(Nc1nc2cc3c(cc2s1)OCCO3)c1ccncc1` as the compound, how does the ratio change, negative = inhibition read?
Its ratio change, negative = inhibition is inconclusive: -31.8% [at 46 µM].

For `CCn1c(C)nc2cc(C(=O)NNC(=S)Nc3ccc(Cl)cc3Cl)ccc21`, which “ratio change, negative = inhibition” value is on record?
The value was inactive: -6.5%.

Which ratio change, negative = inhibition does the source give for `CCC(=O)Nc1cc(-c2nn3c(C)nnc3s2)ccc1C` here?
The ratio change, negative = inhibition was inconclusive: 10.5%.

Which ratio change, negative = inhibition does the source give for `COc1ccc(CCNC(=O)c2ccc3c(c2)nc(C)n3-c2ccc(Br)cc2)cc1OC` here?
The ratio change, negative = inhibition was inconclusive: -6.58% [at 46 µM].

Which ratio change, negative = inhibition does the source give for `Cc1ccc2nc(-c3ccccc3Cl)cc(C(=O)Nc3cc(C)on3)c2c1` here?
Its ratio change, negative = inhibition is inconclusive: 2.04%.

For `COc1cccc(/C=C(/C#N)c2ccc(F)cc2)c1OCc1cccc(C(=O)O)c1`, which ratio change, negative = inhibition is on record?
Its ratio change, negative = inhibition is inconclusive: -6.4%.

With `COC(=O)C1=C(C)N(CCc2ccc(OC)c(OC)c2)C(=O)/C1=C\c1ccc(O)cc1` as the compound, how does the “ratio change, negative = inhibition” value read?
Its value is inactive: -2.1%.

Which “ratio change, negative = inhibition” value does the source give for `CCN(CC)S(=O)(=O)c1ccc(-c2nnc(SCc3nnc(-c4ccc(C)cc4)o3)n2CC)cc1` here?
The value was inactive: -19.8%.

Which “ratio change, negative = inhibition” value does the source give for `Cn1c(=O)n(C)c2cc(NS(=O)(=O)c3ccc(Br)s3)ccc21` here?
The value was inactive: -6.21% [at 46 µM].

For `Cc1cc(C(=O)OCC(N)=O)c(C)n1-c1ccccc1`, which ratio change, negative = inhibition is on record?
The ratio change, negative = inhibition was inconclusive: 99.6% [at 46 µM].

Which ratio change, negative = inhibition does the source give for `COc1ccccc1NC(=O)CSc1nc(C)c2c(c1C#N)CCCC2` here?
The ratio change, negative = inhibition was inconclusive: 49%.

For `CCC1=NN2C(=N)/C(=C\c3cccn3-c3cccc(Cl)c3)C(=O)N=C2S1`, which ratio change, negative = inhibition is on record?
The ratio change, negative = inhibition was inconclusive: 23.3% [at 9.22 µM].

With `CC(=O)N1CCN(CC(O)COc2ccc(OCc3ccccc3)cc2)CC1` (stereo not given) as the compound, how does the “ratio change, negative = inhibition” value read?
The value was inactive: -2.98%.

With `CCN1/C(=C\c2ccc3ccccc3[n+]2CC)Sc2cc(C)ccc21` as the compound, how does the Potency read?
The Potency was inconclusive: 10 µM [activator, partial curve].

With `C=CCN(CC=C)S(=O)(=O)c1ccc(NC(=S)NC(=O)Cc2ccc(OC)cc2)cc1` as the compound, how does the ratio change, negative = inhibition read?
The ratio change, negative = inhibition was inconclusive: 20.6%.

For `O=C(CCCSc1nnnn1-c1ccccc1)c1ccc(F)cc1`, which “ratio change, negative = inhibition” value is on record?
Its value is inactive: -5.2%.

With `COc1ccc(C2CC(c3cccs3)=NN2C(=O)COC(=O)c2cncc(Br)c2)cc1OC` (stereo not given) as the compound, how does the “ratio change, negative = inhibition” value read?
Its value is inactive: -4.9% [at 46 µM].

For `CCOC(=O)c1ccc(N=C2SC(C(=O)NCCc3ccccc3)CC(=O)N2C)cc1` (stereo not given), which ratio change, negative = inhibition is on record?
Its ratio change, negative = inhibition is inconclusive: -3.81% [at 46 µM].

Which Potency does the source give for `COc1ccc(O)c(CNc2ccccc2F)c1` here?
Its Potency is inconclusive: 0.0708 µM [activator, full curve, poor fit].

Which “ratio change, negative = inhibition” value does the source give for `CCOC(=O)c1ccoc1CSCc1ccc(C(=O)OC)o1` here?
Its value is inactive: -3.41%.

Which Potency does the source give for `O=S(=O)(Nc1ccc2c(c1)OCCO2)c1ccc2oc3ccccc3c2c1` here?
The Potency was inconclusive: 11.2 µM [fluorescent, partial curve].

With `CC(C)NC(=O)CN1CCC(O)(c2ccccc2)CC1` as the compound, how does the “ratio change, negative = inhibition” value read?
Its value is inactive: 0.737%.

With `CCOC(=O)c1scc(-c2ccccc2)c1S(=O)(=O)Nc1ccccc1OC` as the compound, how does the ratio change, negative = inhibition read?
Its ratio change, negative = inhibition is inconclusive: 1.59% [at 46 µM].

With `Cc1ccc(S(=O)(=O)CC(=O)N(C)C)cc1` as the compound, how does the “ratio change, negative = inhibition” value read?
Its value is inactive: -9.18%.

With `CCCCN(C)CCC(=O)Nc1ccc2c(c1)CCC2` as the compound, how does the ratio change, negative = inhibition read?
The ratio change, negative = inhibition was inconclusive: -22.9% [at 46 µM].

With `CN(C)c1ccnc(NCc2ccccc2)c1C#N` as the compound, how does the “ratio change, negative = inhibition” value read?
Its value is inactive: 20.7%.

For `Cc1cc(C)c(NC(=O)CSc2nc3ccccc3c3nc(-c4ccccc4)nn23)c(C)c1`, which ratio change, negative = inhibition is on record?
The ratio change, negative = inhibition was inconclusive: 5.3% [at 46 µM].

Which “ratio change, negative = inhibition” value does the source give for `COc1cc(C(C)=O)ccc1Oc1ncnc2c1cnn2-c1ccc(F)cc1` here?
Its value is inactive: -19.2%.

For `CCc1ccc(CNC(=O)C2CCCN(S(=O)(=O)c3ccc4c(ccn4C)c3)C2)cc1` (stereo not given), which ratio change, negative = inhibition is on record?
The ratio change, negative = inhibition was inconclusive: -0.791% [at 46 µM].

For `CCCCNC(=S)N(C)/N=C/c1ccc(F)cc1`, which ratio change, negative = inhibition is on record?
The ratio change, negative = inhibition was inconclusive: -23.6%.

With `Cc1ccc(C)c(NS(=O)(=O)c2ccc(OCC(=O)NCc3ccco3)cc2)c1` as the compound, how does the “ratio change, negative = inhibition” value read?
The value was inactive: -6.58%.

With `c1ccc(C2=Nn3c(nnc3-c3ccncc3)SC2)cc1` as the compound, how does the ratio change, negative = inhibition read?
Its ratio change, negative = inhibition is inconclusive: 4.78%.

For `O=C(CCc1nnc(CCCc2ccccc2)o1)NCCN1CCOC1=O`, which ratio change, negative = inhibition is on record?
Its ratio change, negative = inhibition is inconclusive: 16.7% [at 46 µM].

Which “ratio change, negative = inhibition” value does the source give for `Cc1ccccc1N1C(=O)CC(N(O)c2ccccc2)C1=O` (stereo not given) here?
Its value is inactive: 0.53%.

With `COc1cccc(-n2cn[nH]c2=S)c1` as the compound, how does the ratio change, negative = inhibition read?
The ratio change, negative = inhibition was inconclusive: 16.2% [at 46 µM].
